Assay results taken from PMC5923462.
The exact form of at least one protein or probe is not confirmed.

By UniProt entry, the sequences of proteins in these tests, tags left out. Where a name states a change or a piece, a line headed by the entry shows the natural chain unless it says otherwise.
UniProt Q9F0J8: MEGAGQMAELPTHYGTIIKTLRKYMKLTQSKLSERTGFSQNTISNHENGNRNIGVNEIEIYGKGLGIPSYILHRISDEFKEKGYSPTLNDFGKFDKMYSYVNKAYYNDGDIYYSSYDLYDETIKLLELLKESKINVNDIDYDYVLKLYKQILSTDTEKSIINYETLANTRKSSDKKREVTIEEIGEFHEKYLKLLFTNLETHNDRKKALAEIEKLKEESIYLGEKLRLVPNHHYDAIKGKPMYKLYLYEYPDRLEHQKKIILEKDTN

Molecular target: Stl WT (UniProt Q9F0J8)
Test: EMSA
Conditions: 100 ng DNA in 20 uL; recombinant protein; protein details: GST tag removed by thrombin on column (pGEX-4T-1)

“TCGTAAACATATTCTCACCTCCTCGAACAAATTATCTCACATCGAGATATTTATTTCAACATTAAATATTGCAAATTGAGATATTTTTTTCGATATGATATCATTTGGATGGAAGGAGCTGGTCAAATGGCAGAATTACCAACACATTACGGCACAATTATTAAAACTCTTAGAAAATACATGAAATTAACTCAAAGCAAATTGAGTGAAAGGACAGGATTTAGGATCC (double strand) [Stl-Str 229-mer (Stl-regulated promoter region)]”: binds.
